Measured values reported in the supplement of paper PMC7830784.
Counter-ions that a name gives are not always drawn. This is one part of the list. This data set is noisy: repeats of one test often differ as much as different tests do.

Tested on: Brugia pahangi adult female
Experiment: motility inhibition on day 3 relative to DMSO vehicle; higher = more active
Conditions: 10 µM; 3 days

Compound	motility inhibition on day 3
O=C([O-])Cc1ccccc1.[Na+] [sodium phenylacetate]	1.33%
CCN(CC)C(=O)N[C@H]1C=C2c3cccc4[nH]cc(c34)C[C@H]2N(C)C1 [R(+)-Lisuride hydrogen maleate]	2.36%
O=c1[nH]c2ccccc2n1CCCN1CCC(n2c(=O)[nH]c3cc(Cl)ccc32)CC1 [Domperidone]	15.5%
O=C([O-])c1ccccc1-c1c2cc(Br)c(=O)cc-2oc2[c]([Hg+])c([O-])c(Br)cc12.[Na+].[Na+].[OH-] [merbromin]	66.1%
CC(C)[N+](C)(CCC(C(N)=O)(c1ccccc1)c1ccccc1)C(C)C [isopropamide iodide]	24%
C#C[C@]1(O)CC[C@H]2[C@@H]3CCC4=CC(=O)CC[C@]4(C)[C@H]3CC[C@@]21C [ethisterone]	13.8%
CC(C)CC(N(C)C)C1(c2ccc(Cl)cc2)CCC1 (stereo not given) [sibutramine hydrochloride]	25.2%
CNC(=O)c1cc(C#N)cc(C)c1NC(=O)c1cc(Br)nn1-c1ncccc1Cl [Cyantraniliprole]	< 0%
CCOc1ccc2c3c1O[C@H]1[C@@H](O)C=C[C@H]4[C@@H](C2)N(C)CC[C@@]341 [Ethylmorphine]	3.41%
C=CC[C@]1(O)CC[C@H]2[C@@H]3CCC4=CC(=O)CCC4=C3C=C[C@@]21C [altrenogest]	34.9%
C=C[C@H]1CN2CC[C@H]1C[C@@H]2[C@@H](O)c1ccnc2ccccc12 [cinchonine]	23.7%
C=CCN=C=S [allylisothiocyanate]	4.08%
CC(Cc1ccc(O)cc1)NCC(O)c1cc(O)cc(O)c1 (stereo not given) [fenoterol hydrobromide]	5.3%
C1CCc2nnnn2CC1 [pentetrazole]	< 0%
COc1ccc2c(c1)[C@]13CCCC[C@@H]1[C@H](C2)N(C)CC3 [dextromethorphan hydrobromide]	32.2%
C=C[C@H]1CN2CC[C@H]1C[C@H]2[C@H](O)c1ccnc2ccccc12 [cinchonidine]	3.31%
CN1[C@@H]2CC[C@H]1C[C@@H](OC(=O)[C@H](CO)c1ccccc1)C2 [hyoscyamine]	18.2%
Nc1nc(N)nc(NC2CC2)n1 [cyromazine]	12.1%
Cc1ccc(-c2nc3ccc(C)cn3c2CC(=O)N(C)C)cc1 [zolpidem]	3.78%
O=[N+]([O-])O[C@@H]1CO[C@H]2[C@@H]1OC[C@@H]2O [isosorbide mononitrate]	1.81%
N[C@@H](Cc1ccc(N(CCCl)CCCl)cc1)C(=O)O [melphalan]	< 0%
CC(C)N(CCC(C(N)=O)(c1ccccc1)c1ccccn1)C(C)C (stereo not given) [Disopyramide phosphate]	1.01%
N=C(N)NN [Aminoguanidine hemisulfate]	10%
C[C@H](N)[C@H](O)c1ccc(O)c(O)c1 [levonordefrin]	53.6%

Compound	motility inhibition on day 3
COc1ccc(CN2CCNCC2)c(OC)c1OC [trimetazidine dihydrochloride]	3.42%
CC[C@H]1CN2CC[C@H]1C[C@@H]2[C@@H](O)c1ccnc2ccc(OC)cc12 [hydroquinidine]	< 0%
C=C[C@H]1CN2CC[C@H]1C[C@H]2[C@H](OC(=O)OCC)c1ccnc2ccc(OC)cc12 [quinine ethyl carbonate]	29.8%
Cc1cc(O)ccc1Cl [chlorocresol]	< 0%
C=C(C)[C@H]1CN[C@H](C(=O)O)[C@H]1CC(=O)O [kainic acid]	14.6%
CNc1ccc(C(=O)CC(O)CCC(C)C2OC(=O)CC(O)CC(=O)CC(O)CC(O)CC(O)CC(O)CC3(O)CC(O)C(C(=O)OC)C(CC(O[C@@H]4O[C@H](C)[C@@H](O)[C@H](N)[C@@H]4O)/C=C/C=C/C=C/C=C/C=C/C=C/C=C/C2C)O3)cc1.COC(=O)C1C(O)CC2(O)CC(O)CC(O)CC(O)CC(O)CC(=O)CC(O)CC(=O)OC(C(C)CCC(O)CC(=O)c3ccc(N)cc3)C(C)/C=C/C=C/C=C/C=C/C=C/C=C/C=C/C(O[C@@H]3O[C@H](C)[C@@H](O)[C@H](N)[C@@H]3O)CC1O2 (stereo not given in full) [mepartricin]	6.66%
Cc1ncc(CNC(=O)N(CCCl)N=O)c(N)n1 [nimustine]	< 0%
Oc1cccc2cccnc12 [oxyquinoline]	93.7%
CC(C)(O)C(Cl)(Cl)Cl [chlorobutanol]	11.9%
CCCN1C[C@H](CSC)C[C@@H]2c3cccc4[nH]cc(c34)C[C@H]21 [Pergolide methanesulfonate]	< 0%
N.N.[Cl][Pt][Cl] [cisplatin]	16.2%
COc1ccc2c3c1O[C@H]1[C@@H](O)C=C[C@H]4[C@@H](C2)N(C)CC[C@@]341 [Codeine]	2.02%
COc1cccc(C2(O)CCCCC2CN(C)C)c1 (stereo not given) [tramadol hydrochloride]	26.5%
CC(CCc1ccccc1)NC(C)C(O)c1ccc(O)cc1 (stereo not given) [Nylidrin hydrochloride]	8.36%
CC(=O)OC1CN2CCC1CC2 (stereo not given) [aceclidine hydrochloride]	6.35%
C#CC1(OC(N)=O)CCCCC1 [Ethinamate]	7.67%
c1ccc2nc(N3CCNCC3)ccc2c1 [Quipazine dimaleate]	17.3%
C[N+](C)(C)CCCCCCCCCC[N+](C)(C)C [Decamethonium dibromide]	10.8%
CN1C[C@H](C(=O)N[C@]2(C)O[C@@]3(O)[C@@H]4CCCN4C(=O)[C@H](Cc4ccccc4)N3C2=O)C[C@@H]2c3cccc4[nH]cc(c34)C[C@H]21 [Dihydroergotamine methanesulfonate]	< 0%
C[N+]1(C)[C@@H]2CC[C@H]1C[C@@H](OC(=O)C(CO)c1ccccc1)C2 (stereo not given in full) [methylatropine nitrate]	0.151%
NCCc1cc(O)c(O)cc1O [oxidopamine hydrochloride]	59.2%
N#Cc1nn(-c2c(Cl)cc(C(F)(F)F)cc2Cl)c(N)c1[S+]([O-])C(F)(F)F (stereo not given) [fipronil]	10.4%
O=C1C[C@@H]2OCC=C3CN4CC[C@]56c7ccccc7N1[C@H]5[C@H]2[C@H]3C[C@H]46 [strychnine]	0.852%
CC(C)=CC1C(C(=O)OCc2cccc(Oc3ccccc3)c2)C1(C)C (stereo not given) [phenothrin]	19.2%

Quoted at random: 4 records from the list, in no set order.
Compound	motility inhibition on day 3
CN1C[C@H](C(=O)N[C@]2(C)O[C@@]3(O)[C@@H]4CCCN4C(=O)[C@H](Cc4ccccc4)N3C2=O)C[C@@H]2c3cccc4[nH]cc(c34)C[C@H]21 [Dihydroergotamine methanesulfonate]	< 0%
Cc1cc(O)ccc1Cl [chlorocresol]	< 0%
CC(=O)OC1CN2CCC1CC2 (stereo not given) [aceclidine hydrochloride]	6.35%
N#Cc1nn(-c2c(Cl)cc(C(F)(F)F)cc2Cl)c(N)c1[S+]([O-])C(F)(F)F (stereo not given) [fipronil]	10.4%

Quoted from the results shown for reference:
Compound	motility inhibition on day 3
Oc1cccc2cccnc12 [oxyquinoline]	93.7%
CC(C)(O)C(Cl)(Cl)Cl [chlorobutanol]	11.9%

Next records follow:

Compound	motility inhibition on day 3
NC(=O)C[S@@+]([O-])C(c1ccccc1)c1ccccc1 [armodafinil]	9.78%
C[CH2][Hg][S]c1ccccc1C(=O)[O-].[Na+] [thimerosal]	99.8%
O=C1C=C2C=C[C@@H]3C[C@@]2(O1)[C@H]1CCCCN31 [securinine]	95%
CCCC(C)C1(CC)C(=O)NC(=S)NC1=O (stereo not given) [thiopental sodium]	15.4%
O=C(O[C@H]1C[C@H]2CC[C@@H](C1)[N+]21CCCC1)C(O)(c1ccccc1)c1ccccc1 [trospium chloride]	3.86%
COc1ccc(C(=O)N2CCCC2=O)cc1 [Aniracetam]	17.4%
CC[C@H](OC(C)=O)C(C[C@H](C)N(C)C)(c1ccccc1)c1ccccc1 [LAAM hydrochloride]	29.3%
O=C(O)CCCc1ccc(N(CCCl)CCCl)cc1 [chlorambucil]	55.6%
CC[C@@H](C(N)=O)N1CCCC1=O [Levetiracetam]	17.7%
Nc1ccncc1 [4-Aminopyridine]	15.8%
C=CCC1(C(C)CCC)C(=O)NC(=O)NC1=O (stereo not given) [Secobarbital]	13%
CC[C@H](C)[C@H]1O[C@]2(C=C[C@@H]1C)C[C@@H]1C[C@@H](C/C=C(\C)[C@@H](O[C@H]3C[C@H](OC)[C@@H](O[C@H]4C[C@H](OC)[C@@H](O)[C@H](C)O4)[C@H](C)O3)[C@@H](C)/C=C/C=C3\CO[C@@H]4[C@H](O)C(C)=C[C@@H](C(=O)O1)[C@]34O)O2.CO[C@H]1C[C@H](O[C@H]2[C@H](C)O[C@@H](O[C@@H]3/C(C)=C/C[C@@H]4C[C@@H](C[C@]5(C=C[C@H](C)[C@@H](C(C)C)O5)O4)OC(=O)[C@@H]4C=C(C)[C@@H](O)[C@H]5OC/C(=C\C=C\[C@@H]3C)[C@]54O)C[C@@H]2OC)O[C@@H](C)[C@@H]1O [avermectin b1]	83.3%
O=[N+]([O-])c1cc([As](=O)(O)O)ccc1O [roxarsone]	21.5%
CCN1C[C@]2(COC)[C@H](O)C[C@H](OC)[C@@]34[C@@H]5C[C@@]6(O)[C@H](OC(=O)c7ccccc7)[C@@H]5[C@@](OC(C)=O)([C@@H]([C@H](OC)[C@H]23)[C@@H]14)[C@@H](O)[C@@H]6OC [aconitine]	< 0%
C[C@]12CC[C@@H]3c4ccc(OC(=O)N(CCCl)CCCl)cc4CC[C@H]3[C@@H]1CC[C@@H]2O [estramustine]	43.1%
COc1ccc(O)c(C(C)(C)C)c1.COc1ccc(O)cc1C(C)(C)C [butylated hydroxyanisole]	7.45%
C[C@@H]1O[C@@H](O[C@H]2C[C@@H](O)[C@]3(CO)[C@H]4[C@H](O)C[C@]5(C)[C@@H](C6=CC(=O)OC6)CC[C@]5(O)[C@@H]4CC[C@]3(O)C2)[C@H](O)[C@H](O)[C@H]1O [ouabain]	12.1%
[N-]=[N+]=CC(=O)OC[C@H](N)C(=O)O [azaserine]	16.7%
C[N+]1([O-])[C@@H]2CC[C@H]1C[C@@H](OC(=O)C(CO)c1ccccc1)C2 (stereo not given in full) [atropine oxide]	12.8%
CN1CC[C@]23c4c5ccc(O)c4O[C@H]2C(=O)CC[C@H]3[C@H]1C5 [Hydromorphone hydrochloride]	3.71%
N=C1NC(=O)N2CC12 (stereo not given) [imexon]	6.76%
CC[C@@H](c1cccc(O)c1)[C@@H](C)CN(C)C [tapentadol hydrochloride]	23.5%
